Test results: patent US9957295B2, “Peptides inhibiting cold-inducible RNA binding protein activity” (The Feinstein Institute for Medical Research, priority 2013, dated 2018)
Some results were stated once for a whole list of compounds, not compound by compound.

Experiments:
[1] = test system: rmCIRP-induced TNF-α production in differentiated THP-1 cells; experiment: Peptide inhibition of rmCIRP-induced TNF-α production in differentiated THP-1 cells (ELISA); assay type: cell-based, human; conditions: peptide 50 ng/ml pretreatment 1 h, rmCIRP 300 ng/ml, 6 h
[2] = test system: LPS-induced TNF-α production in differentiated THP-1 cells; experiment: Peptide inhibition of LPS-induced TNF-α production in differentiated THP-1 cells (ELISA); assay type: cell-based, human; conditions: peptide 2 ng/ml, LPS 10 ng/ml
Experimental: Human monocytic THP-1 cells (American Type Culture Collection, Manassas, Va.), were seeded in suspension into T75 tissue culture flask at a density of 1.5×10^6 cells and cultured with RPMI-1640 medium supplemented with 10% heat-inactivated fetal bovine serum, 1% penicillin/streptomycin, 2 mM glutamine and additional 0.05 mM β-mercaptoethanol at 37° C. in a humidified incubator with 5% CO2.
Cells were plated at a density of 5×10^4 per well in 96-well tissue culture plate and incubated with phorbol 12-myristate 13-acetate (20 ng/ml) for 48 h to become differentiated macrophages-like cells before experiment. Cells were used between passages 5 and 12. Cells were pretreated with indicated concentrations of CIRP-derived peptides C22 (SEQ ID NO: 13) or C23 (SEQ ID NO: 12) for 1 h, and then incubated in the absence or presence rmCIRP or LPS (from E. coli O111:B4, Sigma St. Louis, Mo.) with Opti-MEM-medium for 6 h. The cell-free supernatants were assayed for TNF-α by ELISA.
Supernatants were measured for TNF-α levels using a commercially available enzyme-linked immunosorbent assay (ELISA) kits-human TNF-α set (BioSource International, Camarillo, Calif.) according to the manufacturer's instruction.
The CIRP-derived peptides were also found to modulate LPS-induced TNF-α release in differentiated THP-1 cells. […]

Sequence	inhibition of rmCIRP-induced TNF-α production [1]	suppression of LPS-induced TNF release [2]
GGRGRGRGFSRGGGD (fragment of CIRP) [C22, 15-mer oligopeptide derived from human CIRP]	67-72%	61-63%
GRGFSRGGGDRGYGG (fragment of CIRP) [C23, 15-mer oligopeptide derived from human CIRP]	67-72%	61-63%
